From patent publication US20040110777A1, “Quinazolinones and pyridinylpyrimidinones for controlling invertebrate pests” (priority 2003, published 2004)
Some entries share one result that the patent states for a list of compounds.

Test system: diamondback moth (Plutella xylostella)
Test: control of diamondback moth on radish plants, plant feeding damage visually assessed
Format: in vivo
Conditions: sprayed at 250 ppm; neonate larvae on radish plant; held 6 days at 25° C., 70% relative humidity; three replicates

Cc1nc(C(F)(F)F)ccc1-c1nc2c(C)cccc2c(=O)n1C(C)C [Compound 5, 8-methyl-3-(1-methylethyl)-2-[2-methyl-6-(trifluoromethyl)-3-pyridinyl]-4(3H)-quinazolinone]
plant protection (feeding damage): ≤ 20%
